According to the supplement of paper PMC8166895:
Several values for one entry are separate records, joined by “and”; a condition that tells them apart may be missing. Equal entries are not always repeated. Structures can show the parent of a compound that is named as a salt. The list shows a part of the results. Most values lie at the level of the controls, where differences are scatter.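 Melting temperature was read by differential scanning fluorimetry in a single-replicate pilot screen of a library of approved drugs and clinical or known-target compounds. Compounds raising the melting point by at least 2 °C were the top stabilizing hits, and negative shifts mean destabilization.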

What follows are molecules tested on SARS-CoV-2 main protease (Mpro, nsp5) (assay: thermal shift ΔTm of Mpro relative to plate average Tm; higher = stronger thermal stabilization of Mpro (binding)). Settings: 10 µM; protein concentration 1 µM.

Row | Structure (SMILES) | thermal shift ΔTm of Mpro
1 | Cc1ccccc1CN1C2=NCCN2C(=O)C2=C1CCN(Cc1ccccc1)C2 [TIC10 Analogue] | 0.00869 °C
2 | CC[C@H](C)C(=O)O[C@H]1CCC=C2C=C[C@H](C)[C@H](CC[C@@H]3C[C@@H](O)CC(=O)O3)[C@H]21 [Mevastatin] | -0.2 °C
3 | C[C@H](CCC(=O)O)[C@H]1CC[C@H]2[C@@H]3[C@H](O)C[C@@H]4C[C@H](O)CC[C@]4(C)[C@H]3CC[C@]12C [Chenodeoxycholic Acid] | 0.004 °C
4 | CN1CCN(c2c(F)cc3c(=O)c(C(=O)O)cn(CCF)c3c2F)CC1 [Fleroxacin] | -0.023 °C
5 | CC(=O)OCC(CCn1cnc2cnc(N)nc21)COC(C)=O [Famciclovir] | -0.0228 °C
6 | COc1ccc([C@@H]2CC(=O)c3c(O)cc(O[C@@H]4O[C@H](CO)[C@@H](O)[C@H](O)[C@H]4O[C@@H]4O[C@@H](C)[C@H](O)[C@@H](O)[C@H]4O)cc3O2)cc1O [Neohesperidin] | -0.215 °C
7 | C=CC(=O)Nc1cccc(Oc2nc(Nc3ccc(N4CCN(C)CC4)cc3OC)ncc2Cl)c1 | 0.441 °C
8 | CC(C)CC(CC(=O)NO)C(=O)N[C@@H](Cc1ccc2ccccc2c1)C(=O)N[C@@H](C)C(=O)NCCN (some centres undefined) [TAPI-1 trifluoroacetate] | -0.0178 °C
9 | CC(C)CC(CC(=O)NO)C(=O)N[C@@H](Cc1ccc2ccccc2c1)C(=O)N[C@@H](C)C(=O)NCCN (some centres undefined) | 0.146 °C
10 | NCC(O)CC(=O)O (centres undefined) [4-Amino-3-hydroxybutyric Acid] | 0.115 °C
11 | COC(=O)CCSCc1ccc(-c2onc(C)c2NC(=O)OC(C)c2ccccc2Cl)cc1 (centres undefined) | -0.125 °C
12 | CN1CCN(CCCN2c3ccccc3Sc3ccc(Cl)cc32)CC1 [Prochlorperazine Maleate] | 0.114 °C
13 | Cc1nc(=O)c2cc(CN(C)c3ccc(C(=O)N[C@@H](CCC(=O)O)C(=O)O)s3)ccc2[nH]1 [Raltitrexed] | 0.13 °C
14 | O=C1c2ccccc2C(=O)c2c1ccc(O)c2O [Alizarin] | 0.681 °C
15 | c1ccc(CNc2nc(NCc3ccccc3)c3ccccc3n2)cc1 | -0.0656 °C
16 | CC(/C=C1\SC(=S)N(CC(=O)O)C1=O)=C\c1ccccc1 [Epalrestat] | 0.0784 °C
17 | CCCOc1ccn2c(C(C)=O)cc(-c3ccccc3S(C)(=O)=O)c2c1 | -0.0123 °C
18 | CCCN(CCC)C1CCc2cccc(O)c2C1 (centres undefined) | -0.0119 °C
19 | CS(=O)(=O)N1CCc2c(-c3cnc(N)nc3)nc(N3CCOCC3)nc21 | -0.0238 °C
20 | O=c1oc2ccccc2c(O)c1Cc1c(O)c2ccccc2oc1=O [Dicoumarol] | -0.0334 °C
21 | COc1ccc(C(=O)N2CCCC2=O)cc1 [Aniracetam] | 0.321 °C
22 | C(=C\c1ccccc1)/CN1CCN(C(c2ccccc2)c2ccccc2)CC1 [Stugeron] | 0.132 °C
23 | CCN(CC)CC(=O)Oc1ccc(NC(C)=O)cc1 [Propacetamol Hydrochloride] | 0.394 °C
24 | C[C@]1(O)C[C@@H](c2nc(-c3ccc4ccc(-c5ccccc5)nc4c3)c3c(N)nccn32)C1 [OSI-906 (Linsitinib)] | 0.0774 °C
25 | C[C@@H]1CCO[C@H]2Cn3cc(C(=O)NCc4ccc(F)cc4F)c(=O)c(O)c3C(=O)N12 [Dolutegravir sodium] | 0.0703 °C

Row | Structure (SMILES) | thermal shift ΔTm of Mpro
26 | C[C@@H]1CCO[C@H]2Cn3cc(C(=O)NCc4ccc(F)cc4F)c(=O)c(O)c3C(=O)N12 | 0.315 °C
27 | O=C(C1CCCCC1)N1CC(=O)N2CCc3ccccc3C2C1 (centres undefined) [Praziquantel] | -0.168 °C
28 | CNC(=O)c1cc(Oc2ccc(NC(=O)Nc3cc(C(C)(C)C)nn3-c3ccc4ncccc4c3)c(F)c2)ccn1 [DCC-2036 (Rebastinib)] | 0.00791 °C
29 | OC[C@H]1O[C@H](O[C@]2(CCl)O[C@H](CCl)[C@@H](O)[C@@H]2O)[C@H](O)[C@@H](O)[C@H]1Cl [Sucralose] | -0.1 °C
30 | COc1cc(-c2oc3cc(O)cc(O)c3c(=O)c2O[C@@H]2O[C@H](CO[C@@H]3O[C@H](CO)[C@@H](O)[C@H](O)[C@H]3O)[C@@H](O)[C@H](O)[C@H]2O)ccc1O [Astragaloside] | 0.0124 °C
31 | Nc1nc2ccc(OC(F)(F)F)cc2s1 [Riluzole] | -0.000155 °C
32 | CN1CCC(=C2c3ccccc3CCc3cccnc32)CC1 [Azatadine dimaleate] | -0.0562 °C
33 | Cc1cc(-c2ncc(CNC(=O)c3ccc4c(c3)[nH]c3ccccc34)cc2F)ccn1 [Porcupine-IN-1] | 0.282 °C
34 | COc1ccc2c(c1)c(CC(=O)O)c(C)n2C(=O)c1ccc(Cl)cc1 [Indomethacin] | -0.136 °C
35 | COC(=O)[C@H](CCCN=C(N)N)NS(=O)(=O)c1ccc(C)cc1 [TOS-ARG-OME hydrochloride] | 0.373 °C
36 | COC(=O)[C@H](CCCN=C(N)N)NS(=O)(=O)c1ccc(C)cc1 | -0.11 °C
37 | CC(C)(C)NCC(O)COc1cccc2c1CCC(=O)N2 (centres undefined) [Carteolol HCl] | -0.0485 °C
38 | CNC(=O)c1cc(Oc2ccc(NC(=O)Nc3ccc(Cl)c(C(F)(F)F)c3)c(F)c2)ccn1 [Regorafenib (BAY 73-4506)] | 0.403 °C
39 | O=C(O[C@H]1C[C@H]2CC[C@@H](C1)[N+]21CCCC1)C(O)(c1ccccc1)c1ccccc1 [Trospium chloride] | 0.0237 °C
40 | CN(C)CC(=O)Nc1ccc2[nH]c(=O)c3ccccc3c2c1 | -0.124 °C and -0.107 °C
41 | N#C/C(=C\c1ccc(-c2cc(Cl)ccc2Cl)o1)C(=O)Nc1cccc2ncccc12 | 0.122 °C
42 | CC(=O)NCCCS(=O)(=O)O [Acamprosate calcium] | 0.191 °C
43 | N#Cc1cnc(Nc2cc(NC[C@H]3CNCCO3)c(C(F)(F)F)cn2)cn1 | 0.0586 °C
44 | O=C(O)c1cc(/N=N/c2ccc(O)c(C(=O)O)c2)ccc1O [Olsalazine Sodium] | 0.435 °C
45 | O=C(Nc1ccccc1-c1cn2c(CN3CCNCC3)csc2n1)c1cnc2ccccc2n1 | 0.159 °C
46 | CCCC(CCC)C(=O)Nc1ccn([C@@H]2O[C@H](CO)[C@@H](O)C2(F)F)c(=O)n1 | 0.0845 °C
47 | OC(CNCC(O)C1CCc2cc(F)ccc2O1)C1CCc2cc(F)ccc2O1 (centres undefined) [Nebivolol] | -0.239 °C
48 | CN(CC(=O)N(Cc1ccc(C2CCCCC2)cc1)c1ccc(C(=O)O)cc1)S(=O)(=O)c1c(F)c(F)c(F)c(F)c1F | -0.0756 °C
49 | O=c1cc(N2CCOCC2)nc2c3ccccc3ccn12 [Compound 401] | -0.0204 °C

Pulled one by one from the entries so far, 2 records:
Row | Structure (SMILES) | thermal shift ΔTm of Mpro
45 | O=C(Nc1ccccc1-c1cn2c(CN3CCNCC3)csc2n1)c1cnc2ccccc2n1 | 0.159 °C
22 | C(=C\c1ccccc1)/CN1CCN(C(c2ccccc2)c2ccccc2)CC1 [Stugeron] | 0.132 °C

From no. 27 to 28, copied from above:
Row | Structure (SMILES) | thermal shift ΔTm of Mpro
27 | O=C(C1CCCCC1)N1CC(=O)N2CCc3ccccc3C2C1 (centres undefined) [Praziquantel] | -0.168 °C
28 | CNC(=O)c1cc(Oc2ccc(NC(=O)Nc3cc(C(C)(C)C)nn3-c3ccc4ncccc4c3)c(F)c2)ccn1 [DCC-2036 (Rebastinib)] | 0.00791 °C
